Record: PubChem BioAssay AID652272 (Drosophila RNAi Screening Center, 2013)

- Purpose: 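Finding fly genes that regulate Hedgehog signal transduction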 (primary screen)
- Cell system: Drosophila clone 8 (Cl8) cells
- Reagent: long dsRNA against Drosophila genes
- Measured: 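Firefly light from a Hedgehog-responsive ptc promoter reporter and Renilla reference light, both read on a plate reader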
- Scale: firefly Hh reporter signal: higher = more ptc reporter light; Renilla reference signal: higher = more Renilla control light
- Hit rule: 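Hit when the z-score averaged over two replicates is under -2 or over +3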
- Calls: active = hit: reporter lowered or raised; inactive = not a hit
The screen tested about 21,000 reagents; below is a random part of those that have a named target and a result. Of all reagents, 503 (2.4%) are marked active. 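Raw plate light values, not normalised; calls rest on replicate z-scores that were not deposited; hits include reporter decreases as well as increases.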 Names joined by + are all predicted targets of the reagent. Not given: the amount of reagent, the time to read-out.

Target gene	amplicon	firefly Hh reporter signal, replicate 1	firefly Hh reporter signal, replicate 2	firefly Hh reporter signal, replicate 3	Renilla reference signal, replicate 1	Renilla reference signal, replicate 2	Outcome
CG11693	DRSC14353	74053	85780		1312	2470	inactive
CG11262	DRSC09831	30816	29261	46411	2986	3232	inactive
CG14915	DRSC02399	80083	70598		2516	7072	inactive
CG31465	DRSC16090	1.56e5	81907		6082	3544	inactive
jing	DRSC04923	96708	75419		2656	7349	inactive
jing	DRSC04927	1.29e5	2.65e5		3141	11664	inactive
jing	DRSC05000	1.21e5	57795		4274	1862	inactive
Pepck2	DRSC06013	1.26e5	74493		3367	4456	inactive
CG6712	DRSC02981	1.41e5	91889		6972	4688	inactive
CG9945	DRSC07347	1.11e5	42584		3291	2979	inactive
Hsc70-3	DRSC20253	31536	1.37e5		1186	5617	inactive
CG42518 + MED9	DRSC06917	1.33e5	77592		5764	2880	inactive
CG11598	DRSC14331	1.14e5	1.44e5		1456	4213	inactive

Continued (3 carried over from the part before).
Target gene	amplicon	firefly Hh reporter signal, replicate 1	firefly Hh reporter signal, replicate 2	firefly Hh reporter signal, replicate 3	Renilla reference signal, replicate 1	Renilla reference signal, replicate 2	Outcome
Hsc70-3	DRSC20253	31536	1.37e5		1186	5617	inactive
CG42518 + MED9	DRSC06917	1.33e5	77592		5764	2880	inactive
CG11598	DRSC14331	1.14e5	1.44e5		1456	4213	inactive
CG14480	DRSC06452	1.13e5	56994		3369	3946	inactive
CG8300	DRSC18426	77504	48618		2157	1292	inactive
CG32547	DRSC19263	5.36e5	2.03e5		30210	3339	inactive
CG32547	DRSC19265	6.73e5	2.11e5		35402	4732	inactive
CG32547	DRSC19474	97478	2.17e5		1975	8480	inactive
CG32547	DRSC19626	88720	2.63e5		2092	8448	inactive
mge	DRSC08721	74690	44848		2389	3714	inactive
sens-2	DRSC02136	1.43e5	71361		3594	7488	inactive
sens-2	DRSC02613	1.33e5	67030		3510	5712	inactive
CG42671	DRSC09093	2.97e5	75591		3140	3140	inactive
CG42671	DRSC10321	59729	51251	52521	4964	3755	inactive
